# The list shows a part of the results.
# What was measured:
# Test in all cases: glycan array binding signal (z-score within array); higher = stronger binding
# Conditions in all cases: glycan notation: IUPAC condensed, linker removed
# [1] = target: Gal(b1-4)GlcNAc(b1-3)Gal(b1-3)GlcNAc
# Summary of the method: (§1)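 Columns mapping to the same glycan were averaged after glycan names were converted to IUPAC-condensed notation. The data come from 3228 arrays in the Consortium for Functional Glycomics database, limited to those with an available protein sequence. Binding is reported as a within-array Z-score averaged across arrays of one protein sequence and across linkers.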
# [2] = target: Gal(b1-4)GlcNAc(b1-3)Gal(b1-4)Glc
# Summary of the method: as §1
# [3] = target: Gal(b1-4)GlcNAc(b1-3)Gal(b1-4)GlcNAc
# Summary of the method: as §1
# [4] = target: Gal(b1-4)GlcNAc(b1-3)Gal(b1-4)GlcNAc(b1-2)Man(a1-3)[Gal(b1-4)GlcNAc(b1-3)Gal(b1-4)GlcNAc(b1-2)Man(a1-6)]Man(b1-4)GlcNAc(b1-4)GlcNAc
# Summary of the method: as §1
# [5] = target: Gal(b1-4)GlcNAc(b1-3)Gal(b1-4)GlcNAc(b1-2)Man(a1-3)[Gal(b1-4)GlcNAc(b1-3)Gal(b1-4)GlcNAc(b1-2)Man(a1-6)]Man(b1-4)GlcNAc(b1-4)[Fuc(a1-6)]GlcNAc
# Summary of the method: as §1
# [6] = target: Gal(b1-4)GlcNAc(b1-3)Gal(b1-4)GlcNAc(b1-2)[Gal(b1-4)GlcNAc(b1-3)Gal(b1-4)GlcNAc(b1-6)]Man(a1-6)[Gal(b1-4)GlcNAc(b1-3)Gal(b1-4)GlcNAc(b1-2)Man(a1-3)]Man(b1-4)GlcNAc(b1-4)GlcNAc
# Summary of the method: as §1
# [7] = target: Gal(b1-4)GlcNAc(b1-3)Gal(b1-4)GlcNAc(b1-2)[Gal(b1-4)GlcNAc(b1-3)Gal(b1-4)GlcNAc(b1-6)]Man(a1-6)[Gal(b1-4)GlcNAc(b1-3)Gal(b1-4)GlcNAc(b1-2)Man(a1-3)]Man(b1-4)GlcNAc(b1-4)[Fuc(a1-6)]GlcNAc
# Summary of the method: as §1
# [8] = target: Gal(b1-4)GlcNAc(b1-3)Gal(b1-4)GlcNAc(b1-3)Gal(b1-4)GlcNAc
# Summary of the method: as §1
# [9] = target: Gal(b1-4)GlcNAc(b1-3)Gal(b1-4)GlcNAc(b1-3)Gal(b1-4)GlcNAc(b1-2)Man(a1-3)[Gal(b1-4)GlcNAc(b1-3)Gal(b1-4)GlcNAc(b1-3)Gal(b1-4)GlcNAc(b1-2)Man(a1-6)]Man(b1-4)GlcNAc(b1-4)GlcNAc
# Summary of the method: as §1
# [10] = target: Gal(b1-4)GlcNAc(b1-3)Gal(b1-4)GlcNAc(b1-3)Gal(b1-4)GlcNAc(b1-2)Man(a1-3)[Gal(b1-4)GlcNAc(b1-3)Gal(b1-4)GlcNAc(b1-3)Gal(b1-4)GlcNAc(b1-2)Man(a1-6)]Man(b1-4)GlcNAc(b1-4)[Fuc(a1-6)]GlcNAc
# Summary of the method: as §1
# [11] = target: Gal(b1-4)GlcNAc(b1-3)Gal(b1-4)GlcNAc(b1-3)Gal(b1-4)GlcNAc(b1-2)[Gal(b1-4)GlcNAc(b1-3)Gal(b1-4)GlcNAc(b1-3)Gal(b1-4)GlcNAc(b1-6)]Man(a1-6)[Gal(b1-4)GlcNAc(b1-3)Gal(b1-4)GlcNAc(b1-3)Gal(b1-4)GlcNAc(b1-2)Man(a1-3)]Man(b1-4)GlcNAc(b1-4)[Fuc(a1-6)]GlcNAc
# Summary of the method: as §1
# [12] = target: Gal(b1-4)GlcNAc(b1-3)Gal(b1-4)GlcNAc(b1-3)Gal(b1-4)GlcNAc(b1-3)Gal(b1-4)GlcNAc(b1-2)Man(a1-3)[Gal(b1-4)GlcNAc(b1-3)Gal(b1-4)GlcNAc(b1-3)Gal(b1-4)GlcNAc(b1-3)Gal(b1-4)GlcNAc(b1-2)Man(a1-6)]Man(b1-4)GlcNAc(b1-4)GlcNAc
# Summary of the method: as §1
# [13] = target: Gal(b1-4)GlcNAc(b1-3)Gal(b1-4)GlcNAc(b1-3)Gal(b1-4)GlcNAc(b1-3)Gal(b1-4)GlcNAc(b1-2)Man(a1-3)[Gal(b1-4)GlcNAc(b1-3)Gal(b1-4)GlcNAc(b1-3)Gal(b1-4)GlcNAc(b1-3)Gal(b1-4)GlcNAc(b1-2)Man(a1-6)]Man(b1-4)GlcNAc(b1-4)[Fuc(a1-6)]GlcNAc
# Summary of the method: as §1
# [14] = target: Gal(b1-4)GlcNAc(b1-3)Gal(b1-4)GlcNAc(b1-3)Gal(b1-4)GlcNAc(b1-3)Gal(b1-4)GlcNAc(b1-2)[Gal(b1-4)GlcNAc(b1-3)Gal(b1-4)GlcNAc(b1-3)Gal(b1-4)GlcNAc(b1-3)Gal(b1-4)GlcNAc(b1-6)]Man(a1-6)[Gal(b1-4)GlcNAc(b1-3)Gal(b1-4)GlcNAc(b1-3)Gal(b1-4)GlcNAc(b1-3)Gal(b1-4)GlcNAc(b1-2)Man(a1-3)]Man(b1-4)GlcNAc(b1-4)[Fuc(a1-6)]GlcNAc
# Summary of the method: as §1
# [15] = target: Gal(b1-4)GlcNAc(b1-3)Gal(b1-4)GlcNAc(b1-3)Gal(b1-4)GlcNAc(b1-3)Gal(b1-4)GlcNAc(b1-3)Gal(b1-4)GlcNAc(b1-2)Man(a1-3)[Gal(b1-4)GlcNAc(b1-3)Gal(b1-4)GlcNAc(b1-3)Gal(b1-4)GlcNAc(b1-3)Gal(b1-4)GlcNAc(b1-3)Gal(b1-4)GlcNAc(b1-2)Man(a1-6)]Man(b1-4)GlcNAc(b1-4)GlcNAc
# Summary of the method: as §1
# [16] = target: Gal(b1-4)GlcNAc(b1-3)Gal(b1-4)GlcNAc(b1-3)Gal(b1-4)GlcNAc(b1-3)Gal(b1-4)GlcNAc(b1-3)Gal(b1-4)GlcNAc(b1-2)Man(a1-3)[Gal(b1-4)GlcNAc(b1-3)Gal(b1-4)GlcNAc(b1-3)Gal(b1-4)GlcNAc(b1-3)Gal(b1-4)GlcNAc(b1-3)Gal(b1-4)GlcNAc(b1-2)Man(a1-6)]Man(b1-4)GlcNAc(b1-4)[Fuc(a1-6)]GlcNAc
# Summary of the method: as §1
# [17] = target: Gal(b1-4)GlcNAc(b1-3)Gal(b1-4)GlcNAc(b1-3)Gal(b1-4)GlcNAc(b1-3)Gal(b1-4)GlcNAc(b1-3)Gal(b1-4)GlcNAc(b1-2)[Gal(b1-4)GlcNAc(b1-3)Gal(b1-4)GlcNAc(b1-3)Gal(b1-4)GlcNAc(b1-3)Gal(b1-4)GlcNAc(b1-3)Gal(b1-4)GlcNAc(b1-6)]Man(a1-6)[Gal(b1-4)GlcNAc(b1-3)Gal(b1-4)GlcNAc(b1-3)Gal(b1-4)GlcNAc(b1-3)Gal(b1-4)GlcNAc(b1-3)Gal(b1-4)GlcNAc(b1-2)Man(a1-3)]Man(b1-4)GlcNAc(b1-4)[Fuc(a1-6)]GlcNAc
# Summary of the method: as §1
# [18] = target: Gal(b1-4)GlcNAc(b1-3)Gal(b1-4)GlcNAc(b1-3)Gal(b1-4)GlcNAc(b1-3)Gal(b1-4)GlcNAc(b1-3)Gal(b1-4)GlcNAc(b1-3)Gal(b1-4)GlcNAc(b1-2)Man(a1-3)[Gal(b1-4)GlcNAc(b1-3)Gal(b1-4)GlcNAc(b1-3)Gal(b1-4)GlcNAc(b1-3)Gal(b1-4)GlcNAc(b1-3)Gal(b1-4)GlcNAc(b1-3)Gal(b1-4)GlcNAc(b1-2)Man(a1-6)]Man(b1-4)GlcNAc(b1-4)GlcNAc
# Summary of the method: as §1
# [19] = target: Gal(b1-4)GlcNAc(b1-3)Gal(b1-4)GlcNAc(b1-3)GalNAc
# Summary of the method: as §1
binder,measurement,setting,value
"ERGIC1-EDTA (Homo sapiens), Q969X5 (protein) MKFLVNVALVFMVVYISYIYAAAHMHHHHHHDYDIPTTENLYFQGSEVVNELYVDDPDKDSGGKIDVSLNISLPNLHCELVGLDIQDEMGRHEVGHIDNSMKIPLNNGAGCRFEGQFSINKVPGNFHVSTHSATAQPQNPDMTHVIHKLSFGDTLQVQNIHGAFNALGGADRLTSNPLASHDYILKIVPTVYEDKSGKQRYSYQYTVANKEYVAYSHTGRIIPAIWFRYDLSPITVKYTE",glycan array binding signal (z-score),[1],-0.555
same,glycan array binding signal (z-score),[2],-0.448
same,glycan array binding signal (z-score),[3],-0.664
same,glycan array binding signal (z-score),[4],0.282
same,glycan array binding signal (z-score),[5],2.13
same,glycan array binding signal (z-score),[6],0.628
same,glycan array binding signal (z-score),[7],1.67
same,glycan array binding signal (z-score),[8],-0.304
same,glycan array binding signal (z-score),[9],1.1
same,glycan array binding signal (z-score),[10],0.704
same,glycan array binding signal (z-score),[11],1.27
same,glycan array binding signal (z-score),[12],-0.467
same,glycan array binding signal (z-score),[13],2.23
same,glycan array binding signal (z-score),[14],1.76
same,glycan array binding signal (z-score),[15],-0.16
same,glycan array binding signal (z-score),[16],0.448
same,glycan array binding signal (z-score),[17],1.58
same,glycan array binding signal (z-score),[18],-0.209
same,glycan array binding signal (z-score),[19],0.855

# Exported with bars between the fields: part of the list above.
binder | measurement | setting | value
ERGIC1-EDTA (Homo sapiens), Q969X5 (protein) MKFLVNVALVFMVVYISYIYAAAHMHHHHHHDYDIPTTENLYFQGSEVVNELYVDDPDKDSGGKIDVSLNISLPNLHCELVGLDIQDEMGRHEVGHIDNSMKIPLNNGAGCRFEGQFSINKVPGNFHVSTHSATAQPQNPDMTHVIHKLSFGDTLQVQNIHGAFNALGGADRLTSNPLASHDYILKIVPTVYEDKSGKQRYSYQYTVANKEYVAYSHTGRIIPAIWFRYDLSPITVKYTE | glycan array binding signal (z-score) | [14] | 1.76
same | glycan array binding signal (z-score) | [15] | -0.16

# Source: the supplement of paper PMC8728848
